± gives the standard deviation of the averaged measurements. This is a selection; strong and weak results do not stand in their true shares. Most entries show no effect beyond the scatter of the controls.

Sequences of proteins named here, by UniProt entry; tags and fusion partners are left off. A change or cut given only in a name is not applied to a line headed by its entry.
UniProt Q9BZL6: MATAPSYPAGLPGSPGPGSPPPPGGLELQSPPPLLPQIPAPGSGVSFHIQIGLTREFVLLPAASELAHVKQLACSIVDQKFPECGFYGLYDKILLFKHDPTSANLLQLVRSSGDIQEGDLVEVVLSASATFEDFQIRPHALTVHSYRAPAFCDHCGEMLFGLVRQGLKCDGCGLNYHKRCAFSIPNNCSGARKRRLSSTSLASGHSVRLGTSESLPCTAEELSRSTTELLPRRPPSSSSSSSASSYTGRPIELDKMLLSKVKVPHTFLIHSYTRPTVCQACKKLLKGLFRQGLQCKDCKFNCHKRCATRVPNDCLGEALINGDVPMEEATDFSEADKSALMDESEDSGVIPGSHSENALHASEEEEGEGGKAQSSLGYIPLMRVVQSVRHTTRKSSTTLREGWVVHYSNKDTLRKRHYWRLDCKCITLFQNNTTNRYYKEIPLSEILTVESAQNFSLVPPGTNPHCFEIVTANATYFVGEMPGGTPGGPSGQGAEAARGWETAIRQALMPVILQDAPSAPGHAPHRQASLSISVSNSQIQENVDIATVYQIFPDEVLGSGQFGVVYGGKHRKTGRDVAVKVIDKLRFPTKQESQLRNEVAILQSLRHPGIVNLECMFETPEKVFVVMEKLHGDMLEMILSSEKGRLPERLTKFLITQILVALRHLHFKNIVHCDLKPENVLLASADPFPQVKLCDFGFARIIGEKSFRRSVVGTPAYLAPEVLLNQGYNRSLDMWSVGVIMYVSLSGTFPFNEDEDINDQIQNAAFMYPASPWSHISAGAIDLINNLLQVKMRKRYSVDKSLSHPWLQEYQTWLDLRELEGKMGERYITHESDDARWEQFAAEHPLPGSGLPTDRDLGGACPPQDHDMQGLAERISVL
UniProt P84101: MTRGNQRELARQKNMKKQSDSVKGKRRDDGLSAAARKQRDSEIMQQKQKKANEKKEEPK
UniProt Q9UNT1: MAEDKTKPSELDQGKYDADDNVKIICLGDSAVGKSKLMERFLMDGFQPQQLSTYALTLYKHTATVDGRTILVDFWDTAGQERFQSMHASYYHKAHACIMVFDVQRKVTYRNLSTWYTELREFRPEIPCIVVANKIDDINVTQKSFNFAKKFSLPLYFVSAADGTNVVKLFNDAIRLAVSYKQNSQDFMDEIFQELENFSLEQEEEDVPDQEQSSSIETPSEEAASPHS
UniProt Q9UBK7: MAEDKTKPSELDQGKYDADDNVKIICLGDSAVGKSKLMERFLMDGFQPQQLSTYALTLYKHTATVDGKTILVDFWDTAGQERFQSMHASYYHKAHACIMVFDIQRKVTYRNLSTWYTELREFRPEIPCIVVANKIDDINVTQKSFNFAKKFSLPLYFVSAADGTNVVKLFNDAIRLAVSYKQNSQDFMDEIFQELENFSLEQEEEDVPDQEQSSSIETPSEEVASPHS
UniProt Q9UKG9: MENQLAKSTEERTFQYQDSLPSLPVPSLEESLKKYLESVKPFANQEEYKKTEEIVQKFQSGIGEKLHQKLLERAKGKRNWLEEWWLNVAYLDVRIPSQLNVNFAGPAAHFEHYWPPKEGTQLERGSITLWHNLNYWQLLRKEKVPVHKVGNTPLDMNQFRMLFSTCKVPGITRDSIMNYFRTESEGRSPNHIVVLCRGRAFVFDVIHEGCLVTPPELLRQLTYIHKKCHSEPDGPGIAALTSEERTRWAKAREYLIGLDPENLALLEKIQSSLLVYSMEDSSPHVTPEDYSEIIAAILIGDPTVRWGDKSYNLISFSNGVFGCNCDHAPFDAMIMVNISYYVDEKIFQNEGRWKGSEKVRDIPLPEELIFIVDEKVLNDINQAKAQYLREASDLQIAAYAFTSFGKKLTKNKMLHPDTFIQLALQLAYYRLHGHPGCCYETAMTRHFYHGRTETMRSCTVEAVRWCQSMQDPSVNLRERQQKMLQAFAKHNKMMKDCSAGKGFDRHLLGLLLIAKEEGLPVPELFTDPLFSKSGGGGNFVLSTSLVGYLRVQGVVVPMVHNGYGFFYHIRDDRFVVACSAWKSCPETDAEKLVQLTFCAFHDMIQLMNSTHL
UniProt Q96SB3: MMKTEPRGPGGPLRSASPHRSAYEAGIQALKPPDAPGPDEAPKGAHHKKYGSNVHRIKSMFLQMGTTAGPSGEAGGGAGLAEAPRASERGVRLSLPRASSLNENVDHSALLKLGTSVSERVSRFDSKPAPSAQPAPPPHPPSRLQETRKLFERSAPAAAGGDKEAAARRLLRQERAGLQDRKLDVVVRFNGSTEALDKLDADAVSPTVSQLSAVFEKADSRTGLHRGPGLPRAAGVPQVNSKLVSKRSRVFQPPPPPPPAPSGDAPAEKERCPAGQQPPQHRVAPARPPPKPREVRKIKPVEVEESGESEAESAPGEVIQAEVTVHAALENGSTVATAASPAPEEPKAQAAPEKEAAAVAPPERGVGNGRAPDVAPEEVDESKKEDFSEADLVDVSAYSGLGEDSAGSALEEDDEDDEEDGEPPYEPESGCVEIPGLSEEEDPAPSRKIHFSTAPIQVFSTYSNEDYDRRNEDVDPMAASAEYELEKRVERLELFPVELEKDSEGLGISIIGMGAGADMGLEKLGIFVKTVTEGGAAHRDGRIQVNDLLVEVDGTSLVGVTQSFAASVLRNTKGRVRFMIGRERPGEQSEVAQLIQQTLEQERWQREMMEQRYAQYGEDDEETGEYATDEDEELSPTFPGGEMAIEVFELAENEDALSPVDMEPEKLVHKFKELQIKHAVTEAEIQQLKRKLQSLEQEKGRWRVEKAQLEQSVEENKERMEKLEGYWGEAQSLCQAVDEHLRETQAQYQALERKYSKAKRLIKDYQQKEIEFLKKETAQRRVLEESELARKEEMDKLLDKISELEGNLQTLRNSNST
UniProt Q9NX63: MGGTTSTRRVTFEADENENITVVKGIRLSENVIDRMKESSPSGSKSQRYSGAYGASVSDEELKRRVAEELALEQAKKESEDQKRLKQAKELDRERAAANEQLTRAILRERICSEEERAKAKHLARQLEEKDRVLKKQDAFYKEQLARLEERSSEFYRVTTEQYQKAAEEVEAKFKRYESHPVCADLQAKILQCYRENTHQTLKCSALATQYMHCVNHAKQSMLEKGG

Compound in this assay: Nc1ncnc2c1ncn2[C@@H]1O[C@H](COP(=O)(O)OP(=O)(O)NP(=O)(O)O)[C@@H](O)[C@H]1O [adenylyl imidodiphosphate]
Put plainly: NP40-soluble protein abundance relative to vehicle (solubility fold change) (ratio); higher = more soluble protein in presence of AMP-PNP. In outline:
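Across three independent experiments, values are fold changes against the detergent-processed vehicle for each replicate, based on vsn-normalised intensities. The samples were Jurkat crude lysate treated with eight concentrations (0.1 to 10 mM) for 10 min at room temperature and then 3 min at 37 °C. Lysate was solubilised with 0.8% NP40 and benzonase, ultracentrifuged, and the supernatant analysed by TMT-labelled LC-MS/MS.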

Take “C9JJ19 and related entries (UniProt P82930)”: the NP40-soluble protein abundance was determined as 1.07 ± 0.028 (concentration: 0.1mM) and 1.03 ± 0.038 (concentration: 0.5mM).

With “B4DTS2 and related entries (UniProt Q9BZL6)”, the NP40-soluble protein abundance by setting is: (concentration: 0.1mM) 1.06 ± 0.013; (concentration: 0.5mM) 1.02 ± 0.035.

Consider “B8ZZY7 and related entries (UniProt P84101)”, for which the NP40-soluble protein abundance is 0.958 ± 0.05 (concentration: 0.1mM) and 0.998 ± 0.065 (concentration: 0.5mM).

Consider “A8MXF6 and related entries (UniProt Q9UNT1+Q9UBK7+B7ZBD5+A8MXF6)”, for which the NP40-soluble protein abundance (concentration: 0.1mM) came out at 0.962 ± 0.014 and the NP40-soluble protein abundance (concentration: 0.5mM) was 0.979 ± 0.049.

For “C9J3D7 and related entries (UniProt Q9UKG9)”, the NP40-soluble protein abundance amounted to 0.985 ± 0.069 (concentration: 0.1mM) and 0.954 ± 0.07 (concentration: 0.5mM).

As for “B1AH77 and related entries (UniProt P15153)”, the NP40-soluble protein abundance by setting is: (concentration: 0.1mM) 1.3 ± 0.39; (concentration: 0.5mM) 0.987 ± 0.072.

“D3DTX6 and related entries (UniProt Q96SB3)”: the NP40-soluble protein abundance is 1 ± 0.019 (concentration: 0.1mM) and 0.998 ± 0.04 (concentration: 0.5mM).

Regarding “C9JRZ6 and related entries (UniProt Q9NX63)”, the NP40-soluble protein abundance (concentration: 0.1mM) was 1 ± 0.021 and the NP40-soluble protein abundance (concentration: 0.5mM) worked out at 1.02 ± 0.065.

These data come from the supplement of paper PMC6411743.
